SMILES strings stand for the structures. The list shows a part of the results.

The assay has as its system T1, CTL2-GFP (C. trachomatis L2/434/Bu, GFP-expressing).
T1 construct: L2/434/Bu, GFP-expressing
Also on record: species or system HeLa; Intracellular C. trachomatis growth in HeLa cells, bulk GFP fluorescence relative to DMSO. Conditions: bulk GFP, single well; 28.5 h, 10 µM; inhibitor.
With `Cc1cc(-c2cn3cc(C(=O)N4CCCC4)nc3c(=O)n2C)c(C)o1` [CBK307300], the “% of control remaining” value was 125.646%.

Take `CC(C)COc1ccc(-c2nonc2NC(=O)c2ccco2)cc1` [CBK299802]: the “% of control remaining” value was 128.574%. For the compound `CCC(O)CNc1ccc(C(=O)N2CCC(N3CCOCC3)CC2)cn1` (stereo not shown) [CBK306865], the “% of control remaining” value came to 133.665%.

Consider `CS(=O)(=O)Nc1cc2ccccc2c(-c2ccc3c(c2)CCO3)n1` [CBK073773], for which the “% of control remaining” value came out at 108.231%. As for `CC(C)NC(=O)C[C@@H]1CCNC[C@@H]1Cc1cc(-c2ccccc2)on1` [CBK289147], the “% of control remaining” value was 134.324%.

For `CN1CCN(Cc2ccccc2[N+](=O)[O-])CC1` [CBK261524], the “% of control remaining” value is listed as 118.149%. For `Cc1cc(C[C@@H]2COC[C@H]2NCc2ccc(C)c(C)c2)on1` [CBK284883], the “% of control remaining” value was 79.7032%. The result for `Cn1nccc1C(=O)C1CCN(C(=O)c2cccs2)CC1` [CBK284424] reads 104.892%; that for `Cc1ccc2nc(C)c(CCC(=O)O)c(O)c2c1` [CBK262946], 107.57%.

As to `CC(C)C(=O)Nc1cc2ccccc2c(-c2cccnc2)n1` [CBK073786], the “% of control remaining” value is given as 107.839%. On to `O=C(c1ccsc1NS(=O)(=O)c1cc(Cl)sc1Cl)N1CCOCC1` [CBK042288], for which the “% of control remaining” value is on record as 100%.

As for `Cc1cnc(NC(=O)C2CC(=O)N(Cc3cccs3)C2)s1` (stereo not shown) [CBK175531], the “% of control remaining” value came to 102.506%.

In the case of `O=C(COc1ccccc1[N+](=O)[O-])Nc1ccc(Cl)c(-c2nc3ncccc3o2)c1` [CBK268811], the “% of control remaining” value was determined as 154.911%. As to `COc1ncc(-c2nccnc2N[C@@H]2CCN(Cc3ccccc3)C2)c(OC)n1` [CBK036926], the “% of control remaining” value was determined as 172.106%. On to `O=C(NCCc1c[nH]c2cccc(C3(O)CCCC3)c12)C1CC1` [CBK285319], for which the “% of control remaining” value came out at 139.785%. The result for `OCc1ccccc1-c1nccnc1NCCc1cccnc1` [CBK037444] reads 126.92%; that for `COc1ccc(C(=O)C2=C(O)C(=O)N(CCCO)C2c2ccc(Br)cc2)cc1` (stereo not shown) [CBK263769], 100%; that for `CCN1CCCN(c2ccc(-n3ccc(C)n3)nn2)CC1` [CBK306297], 117.263%. Turning to `CC[C@@H]1CCCCN1C(=O)c1sc2nc(C(C)=O)ccc2c1Cl` [CBK091036], the “% of control remaining” value was 98.4855%.

For `O=c1[nH]c2ccccc2n1CCOc1ccccc1` [CBK288008], the “% of control remaining” value worked out at 129.599%. For the compound `C[C@H](Nc1nc(-c2cccc(C(=O)NCCN(C)C)c2)cnc1N)c1ccccc1` [CBK063714], the “% of control remaining” value is reported as 184.498%. On to `Cc1c(C=Cc2cc(C(=O)O)c3ccccc3n2)cc(C#N)n1C` [CBK295604], for which the “% of control remaining” value was 134.626%. In the case of `Cc1ccc(NC(=O)CN(C)C)c(C)n1` [CBK200388], the “% of control remaining” value is recorded as 115.909%. Regarding `COCC1CCN(c2ncc(C#N)cc2Cl)CC1` [CBK306410], the “% of control remaining” value worked out at 70.7423%.

Consider `N#Cc1c(NC(=O)CSc2nc3ccccc3s2)oc(-c2ccccc2)c1-c1ccccc1` [CBK269019], for which the “% of control remaining” value was found to be 109.467%.

Consider `O=C(CCCN1C(=O)c2cccc3cccc(c23)C1=O)N1CCN(C/C=C/c2ccccc2)CC1` [CBK263300C], for which the “% of control remaining” value amounted to 107.462%. Consider `Cc1cccc(OCC(=O)Nc2ccc(-c3nc4ncccc4o3)cc2C)c1` [CBK269287], for which the “% of control remaining” value came to 148.663%. Turning to `C(=C\CSC1=NCCN1)/CSC1=NCCN1` [CBK264266], the “% of control remaining” value was 120.288%.

For the compound `O=C(O)CCNS(=O)(=O)c1ccc(Cl)c(Cl)c1` [CBK268815], the “% of control remaining” value came to 139.379%. Consider `FC(F)(F)c1ccc(CN2CCCN(c3nccc(OCc4ccc(Cl)c(Cl)c4)n3)CC2)cc1` [CBK083949], for which the “% of control remaining” value came out at 118.393%.

Turning to `CC(c1ccccc1)N(C)C(=O)Cn1c(-c2cccs2)n[nH]c1=S` (stereo not shown) [CBK296718], the “% of control remaining” value was determined as 119.999%.

Consider `CN(C)c1ccc(CCNC(=O)c2cn3ccccc3n2)cc1` [CBK281916], for which the “% of control remaining” value was 153.011%. For `COC(=O)c1ccccc1NC(=O)N1CCN(S(=O)(=O)c2ccc(Cl)cc2)CC1` [CBK266860], the “% of control remaining” value is recorded as 165.058%.

Turning to `COCc1cccc(-c2nccnc2OCc2ccccn2)c1` [CBK106953], the “% of control remaining” value is listed as 120.188%.

Consider `CCOC(=O)c1cnc2nc3ccccc3n2c1C` [CBK270185], for which the “% of control remaining” value worked out at 127.36%. Consider `CN1CCN(CC(=O)N2N=C(c3c(-c4ccccc4)c4cc(Cl)ccc4[nH]c3=O)CC2c2ccccc2)CC1` (stereo not shown) [CBK267545], for which the “% of control remaining” value is recorded as 157.706%.

On to `CN1CCCN(Cc2ccc([N+](=O)[O-])s2)CC1` [CBK261558], for which the “% of control remaining” value was determined as 102.206%. For `CC(C)c1ccc(NC(=O)C2=NNC(=O)CC2)cc1` [CBK057421] the value was 181.006%; for `CN(C)CCN(C)C(=O)c1cc2cc(OC(F)(F)F)ccc2[nH]1` [CBK107316], 132.001%. Take `Cc1[nH]c(=O)c(C#N)c(C)c1CCC(=O)NCc1cn2ccccc2n1` [CBK306325]: the “% of control remaining” value stood at 88.0097%. Turning to `CCN1CCN(C(=O)Cc2ccc(N(C)C)cc2)CC1` [CBK200253], the “% of control remaining” value turned out to be 120.907%. As to `CCNC(=O)Nc1cc2cccnc2nc1-c1ccc2c(c1)OCCCO2` [CBK070695], the “% of control remaining” value turned out to be 100%. Take `CC(=O)Nc1ccccc1NC(=O)CN(C)S(=O)(=O)c1ccc(Cl)cc1` [CBK267373]: the “% of control remaining” value stood at 160.988%. In the case of `O=C(Nc1ccnn1Cc1cccs1)c1cc(=O)[nH]c2ccccc12` [CBK295606], the “% of control remaining” value is reported as 100.054%. In the case of `CC(C)(C)OC(=O)N1CCC(CNCc2c[nH]c(-c3ccccc3)n2)CC1` [CBK056718], the “% of control remaining” value is given as 203.395%. For the compound `CCS(=O)(=O)c1ccc(C(=O)Nc2nc3c(F)cc(F)cc3s2)cc1` [CBK287727], the “% of control remaining” value came out at 126.276%. For `CSCCCNC(=O)N1CCN(c2ccccc2)CC1` [CBK155170], the “% of control remaining” value is recorded as 100%.

Regarding `CCC(C)(C)c1ccc(S(=O)(=O)N2CCN(Cc3cc(C(=O)OC)n(C)c3)CC2)cc1` [CBK062831], the “% of control remaining” value came out at 61.8733%. As for `O=C(O)C(Cc1ccc(O)cc1)c1ccccc1` (stereo not shown) [CBK012287], the “% of control remaining” value is given as 127.821%. For `Cc1ccc(C(=O)N/C(=C\c2ccc3c(c2)OCO3)C(=O)NCC(=O)O)cc1` [CBK265669] the value was 119.31%; for `Cc1cn(CC(=O)NCC2(c3cccc(F)c3)CCCC2)nn1` [CBK281436], 123.303%; for `O=C(c1cncc(O)c1)N1C2CCC1CC(c1ccc(F)cc1)C2` (stereo not shown) [CBK283764], 128.853%. For `NC1=C(N)OC(Oc2ccccc2C(F)(F)F)=NN1` [CBK018424] the value was 101.282%; for `Cc1ccc(S(=O)(=O)NCc2ccccc2)c(C)c1NS(C)(=O)=O` [CBK268555], 150.86%; for `COCc1nc2n(n1)CC(NC1CCCc3sccc31)CC2` (stereo not shown) [CBK305116], 92.311%. As for `Cc1cc(C)c(C(=O)NC2CCN(c3ncccc3C#N)CC2)c(=O)[nH]1` [CBK306709], the “% of control remaining” value is reported as 108.968%. Consider `CN1C[C@H](CNC(=O)Nc2ccc(F)c(F)c2)[C@@H](c2ccc(Cl)c(Cl)c2)C1` [CBK076770], for which the “% of control remaining” value came to 66.0716%.

Consider `CN1C(=O)CC2(C1=O)C(=O)N(CC(=O)O)c1ccc(Cl)cc12` (stereo not shown) [CBK076107], for which the “% of control remaining” value was 135.281%.

With `CC(=O)N[C@H](CC(N)=O)C(=O)N1CCC2(C/C=C/C[C@@H]3COCC[C@@H]3NC(=O)[C@@H](CC(C)C)NC2=O)CC1` [CBK292207], the “% of control remaining” value was determined as 145.04%.

In the case of `CCCC(=O)N1CCC(c2nc3ccccn3c2NC(C)(C)C)CC1` [CBK284744], the “% of control remaining” value is on record as 149.708%.

As for `Cc1c(C(=O)O)sc(S(=O)(=O)N2CCN(C(=O)c3ccc(F)cc3)CC2)c1C(=O)O` [CBK297118], the “% of control remaining” value came to 100.14%. The result for `CN(C)CC(=O)N1CN(C(=O)c2cccc(Br)c2)C(C)(C)C1` [CBK092206C] reads 119.276%; that for `COc1ccc(-c2csc(CCNC(=O)Cc3c[nH]c(=O)[nH]c3=O)n2)cc1` [CBK285670], 137.839%; that for `Cc1ccc(C2=CCN(CC(=O)N3CCCCC3C)CC2)o1` (stereo not shown) [CBK283556], 135.171%. Turning to `CCn1cc(-c2nc3cc(S(=O)(=O)NC(C)C)ccc3n2C(C)C)cn1` [CBK307311], the “% of control remaining” value was determined as 87.9707%. On to `COc1ccc(CN(CCN(C)C)C(=O)NCc2ccc(-c3ccccc3)cc2)cc1OC` [CBK159293], for which the “% of control remaining” value worked out at 112.144%.

With `COc1cccc(CCNC2CC(=O)N(c3ccc(NC(C)=O)cc3)C2=O)c1` (stereo not shown) [CBK265233], the “% of control remaining” value amounted to 102.578%. The result for `CN(C)CCCC(=O)N1CCN(c2ncccn2)CC1` [CBK144523] reads 87.1971%. For `COc1cccc(N2C(=O)N[C@@H]3CCN(S(=O)(=O)c4ccccc4)[C@@H]3C2=O)c1` [CBK289283], the “% of control remaining” value is on record as 121.734%.

On to `N#CCCCN1CCC(Oc2cncc(OCCN3CCOCC3)n2)C1` (stereo not shown) [CBK084495], for which the “% of control remaining” value stood at 82.2847%. Turning to `COc1ccccc1CNC(=O)N[C@@H](CC(C)C)C(=O)O` [CBK286722], the “% of control remaining” value is recorded as 117.997%. For `O=C(NC(Cc1cccs1)c1nccs1)C1CSCN1` (stereo not shown) [CBK284805], the “% of control remaining” value was found to be 157.604%. For `NS(=O)(=O)c1ccc(NC(=S)N2CCN(CCc3ccccc3)CC2)cc1` [CBK268133] the value was 99.8655%. The result for `COc1cccc(-c2cnc(N(C)S(C)(=O)=O)c(C(=O)NC3CCCCC3)c2)c1` [CBK106446] reads 125.07%; that for `Cc1cccc(C(=O)N2CCCCC2C)c1` (stereo not shown) [CBK074052], 123.395%; that for `CCc1cc2cc3c(cc2nc1SCC(=O)Nc1cc(OC)ccc1OC)OCO3` [CBK108546], 116.564%.

`N#CCCCN1C(=O)C(O)(CC(=O)c2ccccn2)c2ccccc21` (stereo not shown) [CBK307373]: the “% of control remaining” value turned out to be 99.8229%. As for `CCOC(=O)CN1C(=O)S/C(=C/c2ccc(OCc3ccc(Br)cc3)cc2)C1=O` [CBK264686], the “% of control remaining” value amounted to 100%. The result for `CCc1nc2c(OCCOC)cccn2c1N(C)C(=O)c1ccccc1F` [CBK147722] reads 114.775%.

Source of the values: publication PMC12040169 (PLOS Biology, 2025).
